Some of the results follow.
Columns and labels:
Experiment in all cases: glycan array binding signal (z-score within array); higher = stronger binding
Conditions in all cases: glycan notation: IUPAC condensed, linker removed
[1] = molecular target: Fuc(a1-2)[GalNAc(a1-3)]Gal(b1-3)GlcNAc(b1-3)GalNAc
Summary of the method: (§1)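 The binding signal is a Z-score computed within each array. Data were drawn from 3228 arrays in the Consortium for Functional Glycomics database, restricted to those with a known protein sequence. Scores were averaged over arrays of the same protein sequence at different concentrations or buffers, and over linkers, and negative values can be taken as non-binding.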

[2] = molecular target: Fuc(a1-2)[GalNAc(a1-3)]Gal(b1-3)GlcNAc(b1-6)GalNAc
Summary of the method: as §1

[3] = molecular target: Fuc(a1-2)[GalNAc(a1-3)]Gal(b1-4)Glc
Summary of the method: as §1

[4] = molecular target: Fuc(a1-2)[GalNAc(a1-3)]Gal(b1-4)GlcNAc
Summary of the method: as §1

[5] = molecular target: Fuc(a1-2)[GalNAc(a1-3)]Gal(b1-4)GlcNAc(b1-2)Man
Summary of the method: as §1

[6] = molecular target: Fuc(a1-2)[GalNAc(a1-3)]Gal(b1-4)GlcNAc(b1-2)Man(a1-3)[Fuc(a1-2)[GalNAc(a1-3)]Gal(b1-4)GlcNAc(b1-2)Man(a1-6)]Man(b1-4)GlcNAc(b1-4)GlcNAc
Summary of the method: as §1

[7] = molecular target: Fuc(a1-2)[GalNAc(a1-3)]Gal(b1-4)GlcNAc(b1-2)Man(a1-3)[Fuc(a1-2)[GalNAc(a1-3)]Gal(b1-4)GlcNAc(b1-2)Man(a1-6)]Man(b1-4)GlcNAc(b1-4)[Fuc(a1-6)]GlcNAc
Summary of the method: as §1

[8] = molecular target: Fuc(a1-2)[GalNAc(a1-3)]Gal(b1-4)GlcNAc(b1-3)Gal(b1-4)GlcNAc
Summary of the method: as §1

[9] = molecular target: Fuc(a1-2)[GalNAc(a1-3)]Gal(b1-4)GlcNAc(b1-3)Gal(b1-4)GlcNAc(b1-3)Gal(b1-4)GlcNAc
Summary of the method: as §1

[10] = molecular target: Fuc(a1-2)[GalNAc(a1-3)]Gal(b1-4)GlcNAc(b1-3)GalNAc
Summary of the method: as §1

[11] = molecular target: Fuc(a1-2)[GalNAc(a1-3)]Gal(b1-4)GlcNAc(b1-3)[Fuc(a1-2)[GalNAc(a1-3)]Gal(b1-4)GlcNAc(b1-6)]GalNAc
Summary of the method: as §1

[12] = molecular target: Fuc(a1-2)[GalNAc(a1-3)]Gal(b1-4)GlcNAc(b1-6)GalNAc
Summary of the method: as §1

[13] = molecular target: Fuc(a1-2)[GalNAc(a1-3)]Gal(b1-4)[Fuc(a1-3)]GlcNAc
Summary of the method: as §1

[14] = molecular target: Fuc(a1-2)[GalNAc(a1-3)]Gal(b1-4)[Fuc(a1-3)]GlcNAc(b1-3)GalNAc
Summary of the method: as §1

[15] = molecular target: Fuc(a1-2)[GalNAc(a1-4)]Gal(b1-4)GlcNAc
Summary of the method: as §1

[16] = molecular target: Fuc(a1-2)[GalNAc(b1-3)]Gal
Summary of the method: as §1

Fuc(a1-3)GlcNAc = molecular target: Fuc(a1-3)GlcNAc
Summary of the method: as §1

[17] = molecular target: Fuc(a1-3)[Gal(b1-4)]Glc6S
Summary of the method: as §1

[18] = molecular target: Fuc(a1-3)[Gal(b1-4)]GlcNAc
Summary of the method: as §1

[19] = molecular target: Fuc(a1-3)[Gal(b1-4)]GlcNAc(b1-2)Man
Summary of the method: as §1

[20] = molecular target: Fuc(a1-3)[Gal(b1-4)]GlcNAc(b1-2)Man(a1-3)[Fuc(a1-3)[Gal(b1-4)]GlcNAc(b1-2)Man(a1-6)]Man(b1-4)GlcNAc(b1-4)GlcNAc
Summary of the method: as §1

[21] = molecular target: Fuc(a1-3)[Gal(b1-4)]GlcNAc(b1-2)Man(a1-3)[Fuc(a1-3)[Gal(b1-4)]GlcNAc(b1-2)Man(a1-6)]Man(b1-4)GlcNAc(b1-4)[Fuc(a1-6)]GlcNAc
Summary of the method: as §1

[22] = molecular target: Fuc(a1-3)[Gal(b1-4)]GlcNAc(b1-3)Gal(b1-3)[Fuc(a1-4)]GlcNAc
Summary of the method: as §1

[23] = molecular target: Fuc(a1-3)[Gal(b1-4)]GlcNAc(b1-3)Gal(b1-4)[Fuc(a1-3)]GlcNAc
Summary of the method: as §1

[24] = molecular target: Fuc(a1-3)[Gal(b1-4)]GlcNAc(b1-3)Gal(b1-4)[Fuc(a1-3)]GlcNAc(b1-3)Gal(b1-4)[Fuc(a1-3)]GlcNAc
Summary of the method: as §1

[25] = molecular target: Fuc(a1-3)[Gal(b1-4)]GlcNAc(b1-3)GalNAc
Summary of the method: as §1

[26] = molecular target: Fuc(a1-3)[Gal(b1-4)]GlcNAc(b1-6)GalNAc
Summary of the method: as §1

[27] = molecular target: Fuc(a1-3)[Gal(b1-4)]GlcNAc(b1-6)[Gal(b1-3)GlcNAc(b1-3)]Gal(b1-4)Glc
Summary of the method: as §1

[28] = molecular target: Fuc(a1-3)[Gal(b1-4)]GlcNAc6S
Summary of the method: as §1

[29] = molecular target: Fuc(a1-3)[Gal3S(b1-4)]Glc
Summary of the method: as §1

[30] = molecular target: Fuc(a1-3)[Gal3S(b1-4)]GlcNAc
Summary of the method: as §1

[31] = molecular target: Fuc(a1-3)[Gal3S(b1-4)]GlcNAc6S
Summary of the method: as §1

[32] = molecular target: Fuc(a1-3)[GalNAc(b1-4)]GlcNAc
Summary of the method: as §1

[33] = molecular target: Fuc(a1-3)[GalNAc(b1-4)]GlcNAc6S
Summary of the method: as §1

Fuc(a1-4)GlcNAc = molecular target: Fuc(a1-4)GlcNAc
Summary of the method: as §1

Fuc(b1-3)GlcNAc = molecular target: Fuc(b1-3)GlcNAc
Summary of the method: as §1

Gal(a1-2)Gal = molecular target: Gal(a1-2)Gal
Summary of the method: as §1

B1: MUB70 (Lactobacillus reuteri) (protein)
chain: CVHVQYIDGETDQMLRQDDLDGYTDETIPYSTAEGIKKFEGDGYELFKDNFPAGEKFDNDDTNDQFYTVIF
Which “glycan array binding signal (z-score)” value [1] does the source give for B1 here?
Its value is 0.366.

And the “glycan array binding signal (z-score)” value [2]?
The value was -0.37.

And the “glycan array binding signal (z-score)” value [3]?
Its value is 0.321.

What about the “glycan array binding signal (z-score)” value [4] of the same binder?
The value was -0.262.

What about the “glycan array binding signal (z-score)” value [5] of the same binder?
The value was 0.348.

And the “glycan array binding signal (z-score)” value [6]?
Its value is -0.449.

What about the “glycan array binding signal (z-score)” value [7] of the same binder?
Its value is -0.35.

What about the “glycan array binding signal (z-score)” value [8] of the same binder?
The value was 0.078.

What about the “glycan array binding signal (z-score)” value [9] of the same binder?
Its value is 0.548.

And the “glycan array binding signal (z-score)” value [10]?
Its value is -0.319.

What about the “glycan array binding signal (z-score)” value [11] of the same binder?
Its value is -0.322.

And the “glycan array binding signal (z-score)” value [12]?
Its value is -0.221.

What about the “glycan array binding signal (z-score)” value [13] of the same binder?
Its value is 0.489.

And the “glycan array binding signal (z-score)” value [14]?
Its value is -0.274.

And the “glycan array binding signal (z-score)” value [15]?
Its value is -0.544.

And the “glycan array binding signal (z-score)” value [16]?
Its value is -0.451.

What about the “glycan array binding signal (z-score)” value (Fuc(a1-3)GlcNAc) of the same binder?
The value was -0.207.

What about the “glycan array binding signal (z-score)” value [17] of the same binder?
Its value is -0.115.

What about the “glycan array binding signal (z-score)” value [18] of the same binder?
Its value is -0.273.

What about the “glycan array binding signal (z-score)” value [19] of the same binder?
Its value is -0.422.

And the “glycan array binding signal (z-score)” value [20]?
Its value is -0.491.

What about the “glycan array binding signal (z-score)” value [21] of the same binder?
Its value is -0.454.

What about the “glycan array binding signal (z-score)” value [22] of the same binder?
Its value is -0.304.

What about the “glycan array binding signal (z-score)” value [23] of the same binder?
Its value is -0.143.

And the “glycan array binding signal (z-score)” value [24]?
Its value is -0.805.

And the “glycan array binding signal (z-score)” value [25]?
Its value is 0.315.

And the “glycan array binding signal (z-score)” value [26]?
Its value is -0.781.

And the “glycan array binding signal (z-score)” value [27]?
Its value is 1.45.

What about the “glycan array binding signal (z-score)” value [28] of the same binder?
Its value is 0.527.

And the “glycan array binding signal (z-score)” value [29]?
Its value is 0.497.

And the “glycan array binding signal (z-score)” value [30]?
The value was 0.226.

What about the “glycan array binding signal (z-score)” value [31] of the same binder?
The value was 0.18.

What about the “glycan array binding signal (z-score)” value [32] of the same binder?
Its value is 0.557.

What about the “glycan array binding signal (z-score)” value [33] of the same binder?
Its value is -0.174.

What about the “glycan array binding signal (z-score)” value (Fuc(a1-4)GlcNAc) of the same binder?
The value was 0.994.

What about the “glycan array binding signal (z-score)” value (Fuc(b1-3)GlcNAc) of the same binder?
The value was -0.459.

What about the “glycan array binding signal (z-score)” value (Gal(a1-2)Gal) of the same binder?
The value was -0.747.

Source: the supplement of paper PMC8728848
